The source of these data is PMC11194573.

Results are given in words; binding and its absence hold for the method and conditions named. For some of these results: Binding calls can cover weak binding; strength is not graded here. For some of these results: Sequences can lack the tags named with a protein.

The target in assay [1] is T1, DefA wild type, fused to the binding domain of the Gal4 regulator (plasmid pGBDU) (Bacillus subtilis) (UniProt P94462).
T1 sequence: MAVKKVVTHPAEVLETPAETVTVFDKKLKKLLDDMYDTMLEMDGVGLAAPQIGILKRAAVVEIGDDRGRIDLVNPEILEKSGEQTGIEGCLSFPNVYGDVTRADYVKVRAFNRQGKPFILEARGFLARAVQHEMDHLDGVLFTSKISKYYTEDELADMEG
Kind of assay: two-hybrid; yeast two-hybrid; PtkA wild type on the Gal4 activating domain (pGAD), DefA wild type and point mutants on the Gal4 binding domain (pGBDU); diploids from a and α haploid strains.

For assay [2], the target named is PtkA, fused to the binding domain of the Gal4 regulator (plasmid pGBDU) (Bacillus subtilis). Kind of assay: two-hybrid; yeast two-hybrid; PtkA or PtkA K59M as bait (Gal4 binding domain, pGBDU), DefA variants as prey (Gal4 activating domain, pGAD); diploids from a and α haploid strains; growth on –LUH selective medium.
Assay [3] shares this target. Kind of assay: two-hybrid; two-hybrid assays of DefB with PtkA, no figure cited; vectors and orientation not stated.
Assay [4] deals with PtkA K59M, fused to the binding domain of the Gal4 regulator (plasmid pGBDU) (Bacillus subtilis). As to the kind of experiment: two-hybrid; yeast two-hybrid; PtkA or PtkA K59M as bait (Gal4 binding domain, pGBDU), DefA variants as prey (Gal4 activating domain, pGAD); diploids from a and α haploid strains; growth on –LUH selective medium.

For the molecule “PtkA wild type, fused to the activating domain of the Gal4 regulator (plasmid pGAD) (Bacillus subtilis) (enzyme)”, in assay [1], the binding entry is “binds”.

B1: DefA 59–155, fused to the activating domain of the Gal4 regulator (plasmid pGAD) (domain or fragment, UniProt P94462 59-155)
chain: AVVEIGDDRGRIDLVNPEILEKSGEQTGIEGCLSFPNVYGDVTRADYVKVRAFNRQGKPFILEARGFLARAVQHEMDHLDGVLFTSKISKYYTEDEL
Regarding B1, the binding result in assay [2] is on record as “binds”.

B2: DefA 59–160, fused to the activating domain of the Gal4 regulator (plasmid pGAD) (domain or fragment, UniProt P94462 59-160)
chain: AVVEIGDDRGRIDLVNPEILEKSGEQTGIEGCLSFPNVYGDVTRADYVKVRAFNRQGKPFILEARGFLARAVQHEMDHLDGVLFTSKISKYYTEDELADMEG
As to B2, the binding entry in assay [2] is “binds”.

B3: DefB (enzyme, UniProt Q45495 1-184)
chain: MITMENIVRDGHPALRETAEPVELPPTDAEKQQLADMIEFVKNSQNPELAEKYKLRPGVGLAAPQINIKKRMIAVHAEDASGKLYSYALFNPKIVSHSVEKSYLTSGEGCLSVDEAIPGYVPRYARIRVKGTTLEGENIDIRLKGFPAIVFQHEIDHLNGVMFYDHIDKENPFKEPENAIAIER
Regarding B3, the binding entry in assay [3] is recorded as “no binding”.

B4: DefA wild type, fused to the activating domain of the Gal4 regulator (plasmid pGAD) (enzyme, UniProt P94462 1-160)
chain: MAVKKVVTHPAEVLETPAETVTVFDKKLKKLLDDMYDTMLEMDGVGLAAPQIGILKRAAVVEIGDDRGRIDLVNPEILEKSGEQTGIEGCLSFPNVYGDVTRADYVKVRAFNRQGKPFILEARGFLARAVQHEMDHLDGVLFTSKISKYYTEDELADMEG
For the molecule B4, the binding result in assay [4] and in assay [2] was “binds” each time.

B5: DefA 51–155, fused to the activating domain of the Gal4 regulator (plasmid pGAD) (domain or fragment, UniProt P94462 51-155)
chain: QIGILKRAAVVEIGDDRGRIDLVNPEILEKSGEQTGIEGCLSFPNVYGDVTRADYVKVRAFNRQGKPFILEARGFLARAVQHEMDHLDGVLFTSKISKYYTEDEL
B5: the binding entry in assay [2] was “binds”.
